We go through 37 targets from the supplement of paper PMC7666118.

The chains behind the UniProt entries cited, without tags or fusion partners. Where a name states a change or a piece, a line headed by the entry shows the natural chain unless it says otherwise.
UniProt P27824: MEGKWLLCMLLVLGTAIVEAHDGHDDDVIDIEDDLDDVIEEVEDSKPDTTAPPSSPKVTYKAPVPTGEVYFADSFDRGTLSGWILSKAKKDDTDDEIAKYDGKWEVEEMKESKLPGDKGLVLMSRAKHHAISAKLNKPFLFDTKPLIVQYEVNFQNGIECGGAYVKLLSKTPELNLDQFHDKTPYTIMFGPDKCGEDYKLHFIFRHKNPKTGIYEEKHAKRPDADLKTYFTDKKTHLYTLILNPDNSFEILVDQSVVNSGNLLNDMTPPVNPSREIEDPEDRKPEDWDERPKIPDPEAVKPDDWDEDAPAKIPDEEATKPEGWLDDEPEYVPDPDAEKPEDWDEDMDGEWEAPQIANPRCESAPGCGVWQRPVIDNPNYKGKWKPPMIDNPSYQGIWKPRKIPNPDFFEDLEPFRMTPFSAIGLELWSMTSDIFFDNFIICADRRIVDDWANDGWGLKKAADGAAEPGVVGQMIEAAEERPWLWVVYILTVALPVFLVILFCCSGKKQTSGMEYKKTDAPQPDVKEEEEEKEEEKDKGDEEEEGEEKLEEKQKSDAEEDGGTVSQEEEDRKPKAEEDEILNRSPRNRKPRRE
UniProt Q9NWD8: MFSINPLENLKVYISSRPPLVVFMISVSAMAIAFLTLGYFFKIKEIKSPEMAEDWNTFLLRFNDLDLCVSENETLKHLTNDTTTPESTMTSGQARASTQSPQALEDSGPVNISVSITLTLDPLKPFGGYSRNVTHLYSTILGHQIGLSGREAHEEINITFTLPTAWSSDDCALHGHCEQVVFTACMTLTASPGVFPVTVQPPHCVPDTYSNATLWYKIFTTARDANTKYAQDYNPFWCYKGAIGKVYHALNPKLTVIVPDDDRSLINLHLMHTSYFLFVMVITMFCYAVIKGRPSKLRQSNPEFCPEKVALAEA
UniProt Q96DZ1: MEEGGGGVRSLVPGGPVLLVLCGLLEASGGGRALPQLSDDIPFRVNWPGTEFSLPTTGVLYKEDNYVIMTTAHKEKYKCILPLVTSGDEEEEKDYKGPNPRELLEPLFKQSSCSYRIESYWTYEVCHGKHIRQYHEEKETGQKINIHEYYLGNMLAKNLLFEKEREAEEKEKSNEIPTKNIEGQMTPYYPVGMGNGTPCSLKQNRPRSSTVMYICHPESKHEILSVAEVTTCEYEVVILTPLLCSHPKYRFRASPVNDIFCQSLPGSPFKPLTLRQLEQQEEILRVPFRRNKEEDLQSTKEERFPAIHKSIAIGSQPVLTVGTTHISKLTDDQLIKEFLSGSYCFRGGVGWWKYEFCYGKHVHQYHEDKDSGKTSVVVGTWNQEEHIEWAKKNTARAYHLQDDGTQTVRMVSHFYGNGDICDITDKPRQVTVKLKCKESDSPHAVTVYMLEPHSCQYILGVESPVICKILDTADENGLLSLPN
UniProt Q96EX1: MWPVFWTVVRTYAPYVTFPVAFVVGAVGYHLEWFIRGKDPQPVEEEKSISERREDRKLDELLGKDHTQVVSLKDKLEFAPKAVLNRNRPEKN
UniProt Q6PII3: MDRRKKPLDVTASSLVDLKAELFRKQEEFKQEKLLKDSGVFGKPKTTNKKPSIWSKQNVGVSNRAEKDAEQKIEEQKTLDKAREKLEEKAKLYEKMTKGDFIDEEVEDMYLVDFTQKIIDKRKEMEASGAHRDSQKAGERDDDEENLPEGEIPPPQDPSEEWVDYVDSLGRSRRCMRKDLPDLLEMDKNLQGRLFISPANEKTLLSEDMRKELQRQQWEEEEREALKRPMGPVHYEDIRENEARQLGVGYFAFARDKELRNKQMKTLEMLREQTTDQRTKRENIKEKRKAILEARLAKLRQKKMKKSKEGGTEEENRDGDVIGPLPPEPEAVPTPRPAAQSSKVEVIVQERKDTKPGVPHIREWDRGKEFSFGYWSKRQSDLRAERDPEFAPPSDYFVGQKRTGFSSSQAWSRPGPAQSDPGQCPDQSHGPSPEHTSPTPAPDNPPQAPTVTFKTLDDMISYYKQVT
UniProt P42574: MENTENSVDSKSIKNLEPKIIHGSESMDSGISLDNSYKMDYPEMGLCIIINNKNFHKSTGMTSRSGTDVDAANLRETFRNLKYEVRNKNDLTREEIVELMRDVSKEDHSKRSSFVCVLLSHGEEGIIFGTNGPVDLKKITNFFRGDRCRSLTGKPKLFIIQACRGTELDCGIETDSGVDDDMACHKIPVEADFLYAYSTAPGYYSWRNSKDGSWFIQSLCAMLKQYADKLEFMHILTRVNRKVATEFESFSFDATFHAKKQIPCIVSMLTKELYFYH
UniProt Q5SWX8: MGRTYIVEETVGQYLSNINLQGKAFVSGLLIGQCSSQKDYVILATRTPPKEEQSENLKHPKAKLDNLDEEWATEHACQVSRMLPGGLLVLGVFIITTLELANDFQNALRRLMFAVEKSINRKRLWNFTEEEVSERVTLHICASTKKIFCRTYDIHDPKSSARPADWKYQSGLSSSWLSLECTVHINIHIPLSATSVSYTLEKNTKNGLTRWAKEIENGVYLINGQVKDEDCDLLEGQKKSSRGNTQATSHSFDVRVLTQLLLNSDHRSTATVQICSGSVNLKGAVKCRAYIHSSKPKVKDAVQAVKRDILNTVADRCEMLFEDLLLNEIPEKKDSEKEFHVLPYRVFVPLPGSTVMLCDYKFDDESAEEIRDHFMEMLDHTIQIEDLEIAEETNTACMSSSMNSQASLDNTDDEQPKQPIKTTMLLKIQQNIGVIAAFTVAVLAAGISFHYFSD
UniProt Q9H7E9: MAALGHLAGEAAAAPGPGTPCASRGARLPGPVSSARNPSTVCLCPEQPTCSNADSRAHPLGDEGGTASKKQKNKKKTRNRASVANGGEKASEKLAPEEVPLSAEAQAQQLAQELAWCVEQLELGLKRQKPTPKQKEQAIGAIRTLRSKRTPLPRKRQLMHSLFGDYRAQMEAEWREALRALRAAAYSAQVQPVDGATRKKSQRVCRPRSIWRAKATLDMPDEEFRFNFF
UniProt Q8WUW1: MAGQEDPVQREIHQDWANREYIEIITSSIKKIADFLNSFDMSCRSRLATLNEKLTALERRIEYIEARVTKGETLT
UniProt Q9BU76: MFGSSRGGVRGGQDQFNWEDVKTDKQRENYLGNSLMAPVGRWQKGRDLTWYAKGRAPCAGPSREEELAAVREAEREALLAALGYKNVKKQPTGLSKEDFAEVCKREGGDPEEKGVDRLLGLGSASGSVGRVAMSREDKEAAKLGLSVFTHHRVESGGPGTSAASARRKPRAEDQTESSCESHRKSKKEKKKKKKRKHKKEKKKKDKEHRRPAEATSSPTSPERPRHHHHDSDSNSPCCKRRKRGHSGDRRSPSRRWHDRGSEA
UniProt Q9H9C1: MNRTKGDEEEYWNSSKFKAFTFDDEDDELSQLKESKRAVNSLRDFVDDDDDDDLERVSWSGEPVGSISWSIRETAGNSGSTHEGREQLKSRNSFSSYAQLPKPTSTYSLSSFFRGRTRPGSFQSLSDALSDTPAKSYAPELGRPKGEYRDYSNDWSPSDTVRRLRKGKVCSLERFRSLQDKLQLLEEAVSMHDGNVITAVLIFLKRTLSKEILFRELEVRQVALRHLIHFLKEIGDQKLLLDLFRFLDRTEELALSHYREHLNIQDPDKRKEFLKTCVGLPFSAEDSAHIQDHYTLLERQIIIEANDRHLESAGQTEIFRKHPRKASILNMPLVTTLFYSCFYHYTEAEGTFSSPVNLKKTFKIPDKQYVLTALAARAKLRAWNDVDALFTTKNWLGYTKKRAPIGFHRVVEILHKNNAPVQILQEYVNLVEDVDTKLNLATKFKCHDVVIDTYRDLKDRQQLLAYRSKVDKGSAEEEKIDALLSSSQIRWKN
UniProt Q08AG7, whole entry: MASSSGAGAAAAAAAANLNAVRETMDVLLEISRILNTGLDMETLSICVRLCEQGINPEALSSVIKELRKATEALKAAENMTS
UniProt Q8WVQ1: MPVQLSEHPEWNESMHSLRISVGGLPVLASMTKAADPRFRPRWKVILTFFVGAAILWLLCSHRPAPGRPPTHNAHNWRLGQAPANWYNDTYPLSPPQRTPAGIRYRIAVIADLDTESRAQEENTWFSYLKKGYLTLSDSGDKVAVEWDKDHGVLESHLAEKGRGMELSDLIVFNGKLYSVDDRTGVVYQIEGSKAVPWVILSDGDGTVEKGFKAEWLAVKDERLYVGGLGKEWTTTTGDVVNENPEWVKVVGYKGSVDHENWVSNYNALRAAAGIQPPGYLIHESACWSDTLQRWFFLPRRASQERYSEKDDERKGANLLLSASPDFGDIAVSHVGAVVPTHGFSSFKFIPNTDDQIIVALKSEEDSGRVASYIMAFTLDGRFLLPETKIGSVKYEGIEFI
UniProt Q9NZ63: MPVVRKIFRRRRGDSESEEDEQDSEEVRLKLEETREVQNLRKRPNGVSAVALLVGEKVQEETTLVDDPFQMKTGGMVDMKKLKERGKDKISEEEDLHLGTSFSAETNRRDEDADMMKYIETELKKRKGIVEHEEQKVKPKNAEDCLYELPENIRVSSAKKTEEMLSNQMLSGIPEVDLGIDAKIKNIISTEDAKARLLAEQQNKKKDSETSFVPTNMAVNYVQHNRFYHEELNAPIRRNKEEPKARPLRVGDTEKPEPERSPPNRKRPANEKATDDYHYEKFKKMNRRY
UniProt Q96RR4, whole entry, looked up: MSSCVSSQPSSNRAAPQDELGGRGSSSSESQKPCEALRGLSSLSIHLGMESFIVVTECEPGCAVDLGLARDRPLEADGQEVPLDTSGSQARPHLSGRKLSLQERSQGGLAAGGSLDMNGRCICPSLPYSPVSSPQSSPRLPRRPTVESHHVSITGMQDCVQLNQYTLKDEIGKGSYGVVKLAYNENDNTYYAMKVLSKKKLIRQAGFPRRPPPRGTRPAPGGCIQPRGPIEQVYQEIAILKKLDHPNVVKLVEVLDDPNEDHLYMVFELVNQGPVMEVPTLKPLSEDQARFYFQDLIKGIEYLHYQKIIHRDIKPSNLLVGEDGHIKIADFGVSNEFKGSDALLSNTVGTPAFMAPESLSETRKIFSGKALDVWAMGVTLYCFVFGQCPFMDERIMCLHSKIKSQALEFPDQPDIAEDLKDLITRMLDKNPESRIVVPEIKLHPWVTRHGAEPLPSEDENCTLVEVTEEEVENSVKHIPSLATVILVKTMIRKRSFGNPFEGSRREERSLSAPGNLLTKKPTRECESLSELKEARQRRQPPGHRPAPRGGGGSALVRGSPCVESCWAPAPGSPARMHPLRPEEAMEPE
UniProt Q8IX90, whole entry: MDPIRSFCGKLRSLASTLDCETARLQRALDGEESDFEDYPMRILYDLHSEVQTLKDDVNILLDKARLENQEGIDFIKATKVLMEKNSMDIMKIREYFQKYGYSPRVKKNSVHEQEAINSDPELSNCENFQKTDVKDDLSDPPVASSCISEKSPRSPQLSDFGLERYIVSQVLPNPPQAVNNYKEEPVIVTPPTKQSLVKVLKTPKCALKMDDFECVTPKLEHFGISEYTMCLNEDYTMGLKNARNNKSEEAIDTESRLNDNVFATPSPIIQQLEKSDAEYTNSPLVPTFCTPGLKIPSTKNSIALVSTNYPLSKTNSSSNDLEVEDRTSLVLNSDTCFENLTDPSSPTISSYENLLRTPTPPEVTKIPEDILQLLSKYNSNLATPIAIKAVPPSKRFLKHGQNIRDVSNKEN
UniProt Q6PJW8: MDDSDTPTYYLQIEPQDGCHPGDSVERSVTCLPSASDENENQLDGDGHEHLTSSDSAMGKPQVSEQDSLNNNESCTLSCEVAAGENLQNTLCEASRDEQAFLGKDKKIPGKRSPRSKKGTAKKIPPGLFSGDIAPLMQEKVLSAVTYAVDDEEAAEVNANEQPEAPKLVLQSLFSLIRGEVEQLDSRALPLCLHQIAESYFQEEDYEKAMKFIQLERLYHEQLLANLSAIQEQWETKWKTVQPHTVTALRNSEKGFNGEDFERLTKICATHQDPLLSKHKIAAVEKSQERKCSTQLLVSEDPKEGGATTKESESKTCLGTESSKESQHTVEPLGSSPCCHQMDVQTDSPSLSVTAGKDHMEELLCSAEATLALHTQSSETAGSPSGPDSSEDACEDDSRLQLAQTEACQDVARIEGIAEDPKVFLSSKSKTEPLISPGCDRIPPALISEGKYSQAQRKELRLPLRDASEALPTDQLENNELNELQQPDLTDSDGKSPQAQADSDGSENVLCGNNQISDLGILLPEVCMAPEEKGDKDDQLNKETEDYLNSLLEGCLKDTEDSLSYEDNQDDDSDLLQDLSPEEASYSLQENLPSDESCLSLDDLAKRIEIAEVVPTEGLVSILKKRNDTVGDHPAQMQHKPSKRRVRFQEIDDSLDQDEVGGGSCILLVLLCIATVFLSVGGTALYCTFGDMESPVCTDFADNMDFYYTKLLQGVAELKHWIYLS
UniProt Q9NU53: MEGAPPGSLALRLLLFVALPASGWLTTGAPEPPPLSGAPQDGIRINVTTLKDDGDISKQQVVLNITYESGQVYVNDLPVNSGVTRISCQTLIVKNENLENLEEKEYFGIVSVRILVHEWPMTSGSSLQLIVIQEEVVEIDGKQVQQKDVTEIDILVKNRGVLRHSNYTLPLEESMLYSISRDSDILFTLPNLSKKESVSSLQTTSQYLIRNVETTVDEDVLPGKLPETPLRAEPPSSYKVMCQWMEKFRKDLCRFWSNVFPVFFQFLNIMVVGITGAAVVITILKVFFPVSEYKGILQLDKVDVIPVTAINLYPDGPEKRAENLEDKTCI

The list shows a part of the results.

Compound in this assay: COc1ccc(Cn2ccc3ccc(C(=O)NO)cc32)cc1
As to the kind of experiment: dose-dependent thermal stabilisation call (2D-TPP, DLPTP, 10% FDR) (binary (1 = stabilised)); higher = stabilised by the compound. To be noted: system: HL-60 intact cells; concentration range 0.04-10 µM.
CALCOCO2 (UniProt Q13137): the “dose-dependent thermal stabilisation call” value was inactive: 0.
CANX (UniProt P27824): the “dose-dependent thermal stabilisation call” value was inactive: 0.
Next, C7ORF42 (UniProt Q9NWD8): inactive: 0.
Next, C2ORF30 (UniProt Q96DZ1): inactive: 0.
Next, C1ORF212 (UniProt Q96EX1): inactive: 0.
Regarding CARS (UniProt P49589), the “dose-dependent thermal stabilisation call” value was inactive: 0.
Next, CAPN7 (UniProt Q9Y6W3): inactive: 0.
The same measure for C3ORF19 (UniProt Q6PII3): inactive: 0; for CASP3 (UniProt P42574): inactive: 0.
Next, C7ORF25 (UniProt Q9BPX7): inactive: 0.
Consider C1ORF27 (UniProt Q5SWX8), for which the “dose-dependent thermal stabilisation call” value is inactive: 0.
The same measure for C2ORF43 (UniProt Q9H6V9): inactive: 0; for C8ORF30A (UniProt Q9BTY7): inactive: 0.
The same measure for C8ORF33 (UniProt Q9H7E9): inactive: 0.
Regarding CAD (UniProt P27708), the “dose-dependent thermal stabilisation call” value is inactive: 0.
Next, CASP10 (UniProt Q92851): inactive: 0; C9ORF41 (UniProt Q8N4J0): inactive: 0; C3ORF10 (UniProt Q8WUW1): inactive: 0.
Next, C1ORF35 (UniProt Q9BU76): inactive: 0; C16ORF63 (UniProt Q96NB1): inactive: 0; C9ORF5 (UniProt Q9H330): inactive: 0.
For C14ORF133 (UniProt Q9H9C1), the “dose-dependent thermal stabilisation call” value was inactive: 0.
The same measure for C13ORF37 (UniProt Q08AG7): inactive: 0; for CANT1 (UniProt Q8WVQ1): inactive: 0.
The same measure for C9ORF78 (UniProt Q9NZ63): inactive: 0; for CAMSAP1 (UniProt Q5T5Y3): inactive: 0; for C1ORF103 (UniProt Q5T3J3): inactive: 0.
Turning to C1GALT1C1 (UniProt Q96EU7), the “dose-dependent thermal stabilisation call” value is inactive: 0.
The same measure for C22ORF28 (UniProt Q9Y3I0): active: 1; for CAMKK2 (UniProt Q96RR4): inactive: 0.
The same measure for CBX5 (UniProt P45973): inactive: 0; for C17ORF49 (UniProt Q8IXM2): inactive: 0.
With C13ORF3 (UniProt Q8IX90), the “dose-dependent thermal stabilisation call” value was inactive: 0.
The same measure for C1ORF149 (UniProt Q9HAF1): inactive: 0.
The same measure for CABIN1 (UniProt Q9Y6J0): inactive: 0.
The same measure for C1ORF71 (UniProt Q6PJW8): inactive: 0; for C6ORF72 (UniProt Q9NU53): inactive: 0.
